Measured values: PubChem BioAssay (NCATS)
The hits were mostly taken out for another list; the other results follow. Results filed as inconclusive are left out. Activity calls are given as the source filed them. Calls follow the shape of the dose curve; as a rule, active = well fitted cell-killing curve with a large enough effect; inconclusive = small, poorly fitted or top-dose-only effect; inactive = flat fitted curve, though single readings scatter.

Assays:
Conditions in all cases: ATP luminescence, 48 h; at 45.8 µM (top of the series)
[1] = Quantitative highthroughput screen to assess conditional lethalithy of P12 Ichikawa cells grown in Human Plasma-Like Medium with dialyzed fetal bovine serum (HPLM+ds) (AID 1963879)
Description: (§1) Assay Provider: Jason Cantor Ph.D.
(§2) Department of Biochemistry
(§3) University of Wisconsin-Madison, Madison, WI, USA
(§4) Chemical screening studies have identified drug sensitivities across hundreds of cancer cell lines but most putative therapeutics fail to translate. Discovery and development of drug candidates in models that more accurately reflect nutrient levels in human blood is a major challenge. Here we performed high-throughput screens in conventional versus Human Plasma-Like Medium (HPLM) to identify compounds that were "missed" when screening using the artificial culture condition. Sets of conditional anticancer compounds spanned phases of clinical development and included non-oncology drugs were assessed. […] We also traced conditional phenotypes for several chemotherapeutics to availability of HPLM-specific metabolites and confirmed others for compounds whose reported targets are encoded by nonessential genes. Our findings establish generalizable strategies for exploiting conditional lethality in HPLM to reveal therapeutic candidates and mechanisms of action in cancer cells.
(§5) Described herein are the results of each viability screens against three cell lines: NOMO1 (an acute myeloid leukemia cell line); P12-Ichikawa (a T-cell acute lymphoblastic leukemia); and SEM (a B-cell ALL). Each assay was screened using 3 different cell culture media: homemade human plasma-Like medium with 10% dialyzed fetal bovine serum (HPLM+ds); RPMI1640 with 10% untreated FBS and 5mM glucose (RPMI+s); and RPMI1640 with 10% dialyzed fetal bovine serum and 5 mM glucose (RPMI+ds).
(§6) PROTOCOL TABLE (as described by Inglese J, Shamu CE and Guy RK. 2007)
(§7) SEQUENCE No. (e.g., 1, 2, 3, etc.); […] (e.g., Cells, Incubation, Reagent, etc.); VALUE and DESCRIPTION.
(§8) 1; Cells; 5 uL; white, solid bottom 1536-well Greiner assay plate.
(§9) 2; Compounds; 23 nL; Kalypsis pin tool (Wako USA) equipped with a 1536-well pin head to transfer to the assay plates.
(§10) 3; Incubation; 48 hours; 37C incubation.
(§11) 4; Reagent; 3 uL; CellTiter Glo (Promega).
(§12) 5; Incubation; 5 min, room temperature
(§13) 6; Detection; Luminescence, Viewlux PerkinElmer.
(§14) NOTES (numbers refer to Sequence numbers above)
(§15) 1. Briefly, 5 ul of cell reagent was dispensed using a Multidrop Combi Dispenser. The NOMO1 and SEM cells were plated at 500 cells/well and the P12-Ichikawa line at 1000 cells/well.
(§16) 2. After seeding the cells, 23 nL of MIPE 4.1 library compounds (in DMSO) were added to each plate using a Kalypsys 1536 Pintool dispenser. Bortezomib at final concentration of […] and DMSO were added to each plate as positive and negative controls respectively. For each screen, MIPE 4.1 compounds were added over an eleven-point concentration range […] in 3-fold dilutions.
(§17) 3. Each plate was covered with a stainless steel gasketed lid to prevent evaporation and incubated for 48 hour at 37C, 95% relative humidity, and 5% CO2.
(§18) 4-5. Three microliter CellTilter-GloTM luminescent substrate mix (Promega) reagent was added to the assay plate and incubated at room temperature for 5 min.
(§19) 6. The luminescence signal was measured using a ViewLux (PerkinElmer) multiplate reader with a 2 second exposure time per plate. Data for each compound were normalized as percent viability such that measurements for DMSO and the empty well controls in each plate were defined as 100% and 0%, respectively.

[2] = Quantitative highthroughput screen to assess conditional lethalithy of P12 Ichikawa cells grown in RPMI1640 with dialyzed fetal bovine serum (RPMI+ds) (AID 1963880)
Description: as §1, §2, §3, §4, §5, §6, §7, §8, §9, §10, §11, §12, §13, §14, §15, §16, §17, §18, §19

[3] = Quantitative highthroughput screen to assess conditional lethalithy of P12 Ichikawa cells grown in RPMI1640 with untreated serum (RPMI+s) (AID 1963881);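 also: 100% = DMSO wells and 0% = empty wells without cells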
Description: as §1, §2, §3, §4, §5, §6, §7, §8, §9, §10, §11, §12, §13, §14, §15, §16, §17, §18, §19

Measured: viability
Also: nearly all actives have a fitted effect of over 35% in size.

CCC[C@H]1C[C@H](C(=O)N[C@@H]([C@@H]2O[C@@H](SC)[C@@H](O)[C@@H](O)[C@@H]2O)[C@H](C)Cl)N(C)C1
inactive: [1] 104% | [2] 99.5% | [3] 108%

C[C@@H](O)[C@H]1C(=O)N2C(C(=O)OCOC(=O)C(C)(C)C)=C(SC3CN(C4=NCCS4)C3)[C@H](C)[C@H]12
inactive: [1] 95.1% | [2] 100% | [3] 92.5%

O=C(c1ccc(F)cc1)N1CCC[C@H](c2nc(-c3ccc(F)cc3)no2)C1
inactive: [1] 95.8% | [2] 102% | [3] 103%

Nc1ccc(C(=O)Nc2cccc(-c3nc(N4CCOCC4)c4oc5ncccc5c4n3)c2)cn1
inactive: [1] 89.2% | [2] 96% | [3] 75.6%

Nc1nc2ccc(OC(F)(F)F)cc2s1
inactive: [1] 89% | [2] 92.2% | [3] 95%
